Structures are written as SMILES. The list does not hold the whole screen: it is rich in T/C values a quarter to a half above the control, in often repeated tests (any T/C) and in doses without a T/C. Further doses and runs are listed elsewhere. T/C: endpoint of the treated group in % of that of the vehicle group. Schedules are NCI's codes, read here as Q, the interval in days (D) or hours (H), X, the number of doses. Some T/C values carry the count of animals alive at the toxicity check (mostly the fifth day); where none is given, no animal had died by that day. Some entries give survivors of the animals treated and no T/C: the source files T/C as zero there, which appears to mark a toxic dose or a test without result, not a measured value. Counts of survivors are from the toxicity check (mostly the fifth day) where no day follows; animals may have died later. Brackets with × give the number of equal values in this list. Some entries hold several experiments; the values are given in rising order.

The subject of this test is CD8F1 mice, subcutaneous mammary adenocarcinoma, T/C%. The test can be described thus: NCI In Vivo Anticancer Drug Screen. Data for tumor model Mammary Adenocarcinoma CD8F1 (subcutaneous) in CD8F1. The note with it: higher T/C = larger tumour. The procedure, abridged: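 Mice carrying transplanted tumors received test compound, and survival or tumor size was recorded. Each value is the treated-group measurement divided by the corresponding measurement in vehicle-dosed controls.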

Where [1] appears, read: T/C endpoint: median tumor weight change, dose: 250.0 mg/kg/injection, schedule: Q01DX001 (ip), vehicle: saline.
[2] abbreviates: T/C endpoint: median tumor weight change, dose: 500.0 mg/kg/injection, schedule: Q01DX001 (ip), vehicle: saline.
Setting [3] is: T/C endpoint: median tumor weight (est.), dose: 400.0 mg/kg/injection, schedule: Q07DX005 (ip), vehicle: saline with Tween-80.
Setting [4] is: T/C endpoint: median tumor weight (est.), dose: 800.0 mg/kg/injection, schedule: Q07DX005 (ip), vehicle: saline with Tween-80.
Setting [5] is: T/C endpoint: median tumor weight (est.), dose: 100.0 mg/kg/injection, schedule: Q07DX005 (ip), vehicle: Klucel (hydroxypropylcellulose) (HPC).

Regarding `Cn1/c2cc/c1=C(\c1ccc(S(=O)(=O)O)cc1)c1ccc([n-]1)/C(c1ccc(S(=O)(=O)O)cc1)=c1/cc/c([nH]1)=C(\c1ccc(S(=O)(=O)O)cc1)c1ccc([n-]1)/C=2c1ccc(S(=O)(=O)O)cc1.O.O=S(=O)(O)C(F)(F)F.[Cu+2]`, the survivor count reads like this: (T/C endpoint: median tumor weight change, dose: 125.0 mg/kg/injection, schedule: Q01DX001 (ip), vehicle: saline) 2 of 10 on day 34; under setting [1], 0 of 10 on day 34; under setting [2], 0 of 10 on day 34; (T/C endpoint: median tumor weight change, dose: 1000.0 mg/kg/injection, schedule: Q01DX001 (ip), vehicle: saline) 0 of 10 on day 34.
As to `C1CCC2OCCOCCOC3CCCCC3OCCOCCOC2C1` (centres undefined), the T/C (T/C endpoint: median tumor weight (est.), dose: 12.5 mg/kg/injection, schedule: Q07DX005 (ip), vehicle: Klucel (hydroxypropylcellulose) (HPC), evaluated on day 30) was 127 % of control.
As for `O=C(NC1CCCCC1)OCc1c(COC(=O)NC2CCCCC2)c(-c2ccc(Cl)c(Cl)c2)n2c1CCC2`, the survivor count is, setting by setting: under setting [3], 5 of 10 on day 30; under setting [4], 3 of 10 on day 30.
As for `COC1C(O)C(C)OC(OC2C(Oc3cccc4c(O)c5c(=O)oc6ccc(C)c7c(=O)oc(c34)c5c67)OC(C)C(O)C2O)C1O` (centres undefined), the survivor count is reported as 5 of 10 on day 30 under setting [5]; 0 of 10 on day 30 (T/C endpoint: median tumor weight (est.), dose: 200.0 mg/kg/injection, schedule: Q07DX005 (ip), vehicle: Klucel (hydroxypropylcellulose) (HPC)); 0 of 10 on day 30 (T/C endpoint: median tumor weight (est.), dose: 400.0 mg/kg/injection, schedule: Q07DX005 (ip), vehicle: Klucel (hydroxypropylcellulose) (HPC)).
In the case of `Cn1ccc(=Nc2ccc(NC(=O)c3ccc(N=c4ccn(C)c5ccc([N+](=O)[O-])cc45)cc3[N+](=O)[O-])cc2)cc1`, the T/C reads like this: (T/C endpoint: median tumor weight (est.), dose: 25.0 mg/kg/injection, schedule: Q07DX005 (ip), vehicle: saline with Tween-80, evaluated on day 30) 144 % of control; (T/C endpoint: median tumor weight (est.), dose: 50.0 mg/kg/injection, schedule: Q07DX005 (ip), vehicle: saline with Tween-80, evaluated on day 30) 127 % of control. The survivor count runs as follows: under setting [3], 6 of 10 on day 30; under setting [4], 1 of 10 on day 30.
Consider `C[C@@]12C(=O)OC(=O)[C@]1(C)[C@H]1CC[C@@H]2O1`, for which the T/C is 130 % of control (T/C endpoint: median tumor weight change, dose: 0.62 mg/kg/injection, schedule: Q01DX001 (ip), vehicle: Klucel (hydroxypropylcellulose) (HPC), evaluated on day 36) and 139 % of control [9 of 10 alive on day 36] (T/C endpoint: median tumor weight change, dose: 2.5 mg/kg/injection, schedule: Q01DX001 (ip), vehicle: Klucel (hydroxypropylcellulose) (HPC), evaluated on day 36). For the same compound, the survivor count (T/C endpoint: median tumor weight change, dose: 5.0 mg/kg/injection, schedule: Q01DX001 (ip), vehicle: Klucel (hydroxypropylcellulose) (HPC)) was 6 of 10 on day 36.
Regarding `COc1cc(Cc2nccc3cc(OC)c(OC)cc23)c(C(C)=O)cc1OC`, the survivor count is, setting by setting: under setting [1], 4 of 10 on day 28; (T/C endpoint: median tumor weight change, dose: 250.0 mg/kg/injection, schedule: Q01DX001 (ip), vehicle: suspension in saline) 2 of 10 on day 31; under setting [2], 0 of 10 on day 28 and 0 of 10 on day 41; (T/C endpoint: median tumor weight change, dose: 500.0 mg/kg/injection, schedule: Q01DX001 (ip), vehicle: suspension in saline) 0 of 10 on day 31.
Turning to `CC[C@@]1(O)C[C@H](OC2CC(N(C)C)C(OC3CC(O)C(OC4CC(O)C(O)C(C)O4)C(C)O3)C(C)O2)c2c(cc3c(c2O)C(=O)c2c(O)ccc(O)c2C3=O)[C@H]1C(=O)OC` (some centres undefined), the T/C (T/C endpoint: median tumor weight (est.), dose: 1.5 mg/kg/injection, schedule: Q07DX005 (ip), vehicle: other, evaluated on day 30) was 149 % of control [9 of 10 alive].
Take `O=c1n(CC2CO2)c(=O)n(CC2CO2)c(=O)n1CC1CO1` (centres undefined): the survivor count by setting is: (T/C endpoint: median tumor weight (est.), dose: 100.0 mg/kg/injection, schedule: Q07DX004 (ip), vehicle: saline with Tween-80) 3 of 10 on day 30; (T/C endpoint: median tumor weight (est.), dose: 100.0 mg/kg/injection, schedule: Q07DX005 (ip), vehicle: saline with Tween-80) 6 of 10 on day 30; (T/C endpoint: median tumor weight (est.), dose: 100.0 mg/kg/injection, schedule: Q07DX005 (ip), vehicle: suspension in saline) 0 of 10 on day 30 and 6 of 10 on day 30; (T/C endpoint: median tumor weight (est.), dose: 200.0 mg/kg/injection, schedule: Q07DX005 (ip), vehicle: suspension in saline) 0 of 10 on day 30 and 4 of 10 on day 30; (T/C endpoint: median tumor weight (est.), dose: 400.0 mg/kg/injection, schedule: Q07DX005 (ip), vehicle: suspension in saline) 0 of 10 on day 30 (2×).
In the case of `COc1ccc(C(=O)c2no[n+]([O-])c2C(=O)c2ccc(OC)cc2)cc1`, the survivor count (T/C endpoint: median tumor weight change, dose: 500.0 mg/kg/injection, schedule: Q01DX001 (ip), vehicle: saline with Tween-80) was 2 of 10 on day 31; the survivor count (T/C endpoint: median tumor weight change, dose: 1000.0 mg/kg/injection, schedule: Q01DX001 (ip), vehicle: saline with Tween-80) is 0 of 10 on day 31 and 1 of 10 on day 25; the survivor count (T/C endpoint: median tumor weight change, dose: 2000.0 mg/kg/injection, schedule: Q01DX001 (ip), vehicle: saline with Tween-80) is 0 of 10 on day 25 and 0 of 10 on day 31.
Turning to `O=C(Oc1ccccc1)c1cc(O)c(O)c(O)c1`, for the setting “T/C endpoint: median tumor weight change, dose: 75.0 mg/kg/injection, schedule: Q01DX001 (ip), vehicle: suspension in saline, evaluated on day 32”, the T/C is 134 % of control. The survivor count runs as follows: (T/C endpoint: median tumor weight change, dose: 600.0 mg/kg/injection, schedule: Q01DX001 (ip), vehicle: suspension in saline) 1 of 10 on day 32; (T/C endpoint: median tumor weight change, dose: 1200.0 mg/kg/injection, schedule: Q01DX001 (ip), vehicle: suspension in saline) 1 of 10 on day 32.
Consider `N#CC(=C1C=CC(=NO)C=C1)c1ccc(Cl)cc1`, for which the T/C (T/C endpoint: median tumor weight (est.), dose: 12.5 mg/kg/injection, schedule: Q07DX005 (ip), vehicle: saline with Tween-80, evaluated on day 30) was 145 % of control.
Consider `C=C(Cl)C(=NC(C)(C)C)Nc1ccccc1C`, for which the survivor count reads like this: (T/C endpoint: median tumor weight change, dose: 125.0 mg/kg/injection, schedule: Q01DX001 (ip), vehicle: Klucel (hydroxypropylcellulose) (HPC)) 3 of 10 on day 36; (T/C endpoint: median tumor weight change, dose: 250.0 mg/kg/injection, schedule: Q01DX001 (ip), vehicle: Klucel (hydroxypropylcellulose) (HPC)) 0 of 10 on day 36; (T/C endpoint: median tumor weight change, dose: 500.0 mg/kg/injection, schedule: Q01DX001 (ip), vehicle: Klucel (hydroxypropylcellulose) (HPC)) 1 of 10 on day 36.
On to `CC(=O)OC1C(O)C(C)OC(OC2C(OC(=O)C3CCC4C(C3)OC3(CC(OC(=O)/C=C/c5ccccc5)C(C)CO3)C43CO3)OC(C)C(O)C2OC(C)=O)C1O` (centres undefined), for which, where the note is “T/C endpoint: median tumor weight change, dose: 20.0 mg/kg/injection, schedule: Q01DX001 (ip), vehicle: distilled water + Tween-80, evaluated on day 34”, the T/C is 128 % of control. For the setting “T/C endpoint: median tumor weight change, dose: 160.0 mg/kg/injection, schedule: Q01DX001 (ip), vehicle: distilled water + Tween-80”, the survivor count is 0 of 10 on day 34.
In the case of `O=C1CCC(=O)N1CO`, the T/C (T/C endpoint: median tumor weight change, dose: 62.5 mg/kg/injection, schedule: Q01DX001 (ip), vehicle: saline, evaluated on day 34) is 125 % of control.
In the case of `C=C(OP(=O)(OC)OC)Sc1ccccc1C`, the survivor count reads like this: (T/C endpoint: median tumor weight change, dose: 3.0 mg/kg/injection, schedule: Q01DX001 (ip), vehicle: Klucel (hydroxypropylcellulose) (HPC)) 1 of 10 on day 32; (T/C endpoint: median tumor weight change, dose: 6.0 mg/kg/injection, schedule: Q01DX001 (ip), vehicle: Klucel (hydroxypropylcellulose) (HPC)) 0 of 10 on day 32.
For the compound `O=C(C#Cc1ccccc1)c1ccccc1`, the survivor count was 5 of 10 on day 30 (T/C endpoint: median tumor weight (est.), dose: 6.25 mg/kg/injection, schedule: Q07DX005 (ip), vehicle: Klucel (hydroxypropylcellulose) (HPC)); 5 of 10 on day 30 (T/C endpoint: median tumor weight (est.), dose: 12.5 mg/kg/injection, schedule: Q07DX005 (ip), vehicle: Klucel (hydroxypropylcellulose) (HPC)); 1 of 10 on day 30 (T/C endpoint: median tumor weight (est.), dose: 25.0 mg/kg/injection, schedule: Q07DX005 (ip), vehicle: Klucel (hydroxypropylcellulose) (HPC)); 0 of 10 on day 30 (T/C endpoint: median tumor weight (est.), dose: 50.0 mg/kg/injection, schedule: Q07DX005 (ip), vehicle: Klucel (hydroxypropylcellulose) (HPC)); 0 of 10 on day 30 under setting [5].
As to `O=C(O)c1ccc(SSc2ccc(C(=O)O)cn2)nc1`, the survivor count (T/C endpoint: mean tumor weight, dose: 750.0 mg/kg/injection, schedule: Q07DX007 (ip), vehicle: saline) is 4 of 10 and the survivor count (T/C endpoint: mean tumor weight, dose: 1000.0 mg/kg/injection, schedule: Q07DX007 (ip), vehicle: saline) is listed as 2 of 10.

Source of the values: PubChem BioAssay AID220 (DTP/NCI, 2004).
